In patent US9963482B2, “Phosphatidylinositol-3-kinase inhibitor and pharmaceutical composition” (Tohoku University, priority 2011, dated 2018):
At least one structure is not confirmed: it was looked up by name or label, or the drawing left a doubt.

Sequences of proteins named here, by UniProt entry; tags and fusion partners are left off.
UniProt P42336, whole entry: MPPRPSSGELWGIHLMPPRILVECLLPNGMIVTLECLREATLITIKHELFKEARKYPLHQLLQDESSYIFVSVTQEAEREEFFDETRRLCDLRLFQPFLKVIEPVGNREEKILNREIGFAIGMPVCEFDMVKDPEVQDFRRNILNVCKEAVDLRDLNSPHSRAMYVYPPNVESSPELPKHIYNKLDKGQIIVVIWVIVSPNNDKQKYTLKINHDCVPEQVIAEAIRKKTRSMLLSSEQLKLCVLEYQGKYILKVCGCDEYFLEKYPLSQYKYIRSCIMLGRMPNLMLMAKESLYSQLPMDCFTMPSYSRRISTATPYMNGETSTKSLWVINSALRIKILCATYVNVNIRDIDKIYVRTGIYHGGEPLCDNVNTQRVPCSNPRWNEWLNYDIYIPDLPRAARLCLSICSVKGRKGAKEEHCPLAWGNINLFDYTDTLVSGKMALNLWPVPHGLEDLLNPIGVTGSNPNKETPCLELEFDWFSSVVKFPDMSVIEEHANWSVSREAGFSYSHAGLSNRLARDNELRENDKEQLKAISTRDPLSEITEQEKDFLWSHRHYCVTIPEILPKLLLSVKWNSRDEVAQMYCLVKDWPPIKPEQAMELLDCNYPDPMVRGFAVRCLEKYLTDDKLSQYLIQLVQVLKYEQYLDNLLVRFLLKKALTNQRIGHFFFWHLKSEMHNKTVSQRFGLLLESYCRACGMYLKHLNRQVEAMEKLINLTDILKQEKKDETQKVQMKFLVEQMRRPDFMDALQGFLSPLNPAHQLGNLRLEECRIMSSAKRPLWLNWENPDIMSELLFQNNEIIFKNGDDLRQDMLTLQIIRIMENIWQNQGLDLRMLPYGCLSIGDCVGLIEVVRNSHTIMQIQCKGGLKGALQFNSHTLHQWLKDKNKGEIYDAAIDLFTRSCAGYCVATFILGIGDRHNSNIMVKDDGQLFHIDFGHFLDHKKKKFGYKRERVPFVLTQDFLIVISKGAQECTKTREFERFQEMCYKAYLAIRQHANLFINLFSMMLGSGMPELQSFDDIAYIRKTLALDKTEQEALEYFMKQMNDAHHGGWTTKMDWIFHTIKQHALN

Columns and labels:
[1] = target: T1, human p110α expressed in budding yeast (Homo sapiens, UniProt P42336); experiment: Screening of PI3K inhibitor using budding yeast (recovery from cell proliferation disorder caused by p110α); format: cell-based; settings: AD1-9 transformant expressing p110α, compound 5 μM, 24 hours, average of three tests
T1 construct: expressed in transfected cells; host or cells: Saccharomyces cerevisiae AD1-9 (LEU2-disrupted), galactose-induced
Method: AD1-9 strain can be obtained from Nader Nourizad (Stanford Genome Technology Center Stanford University, CA, USA).
The transformed AD 1-9 strain was cultured at 30° C. in a minimal complete medium SC-U-L containing no uracil and leucine or SGal-U-L in which 2% glucose was replaced with 2% galactose.
By using the aforementioned system, screening of the compound library, which was obtained from the Screening committee of anticancer drugs supported by grant-in-aid for scientific research on priority area “Cancer” from Ministry of Education, Culture, Sports, Science, and Technology, Japan, was performed. Each compound was added to SGal-U-L liquid medium to constitute a concentration of 0.5 μM or 5 μM and the transformant of AD 1-9 was cultured for 24 hours under shaking. Thereafter, A600 was measured. […] Three independent tests were repeatedly performed to calculate the average value of A600.

PI3K (p110α/p85α) = target: T2, PI3K (p110α/p85α) (Homo sapiens, UniProt P42336); experiment: In vitro PI3K inhibitory activity by mobility shift assay (Carna Biosciences); format: biochemical; settings: compound 20 μM, 50 μM ATP
T2 construct: purchased Carna Biosciences, Inc. (Kobe); contract measurement
Method: The PI3K (p110α/p85α) inhibitory activity was evaluated at Carna Biosciences, Inc. (Kobe) by mobility shift assay which included isolation and quantification of a substrate and the phosphorylated substrate based on the mobility in a capillary (https://www.carnabio.com/japanese/product/search.cgi?mode=profiling). […] After allowing the reaction to occur for 5 hours at room temperature, the mobility shift assay was performed. The test was performed in duplicate.
Inhibition rate was calculated as follows.
The value of product/substrate+product when an agent was added thereto was calculated similarly, and the inhibition rate was calculated based on a difference from the control value.

A600 [1]	PI3K activity inhibitory rate (PI3K (p110α/p85α))	Structure (SMILES)
0.457		CC[C@H](C)C1NC(=O)C2CSSCC/C=C/C(CC(=O)N[C@H](C)C(=O)N2)OC(=O)C[C@@H]1O (stereo partly shown) [SP-2, spiruchastatin B]
0.364	higher inhibition rate than FK228	C/C=C1\NC(=O)C2CSSCC/C=C/C(CC(=O)N[C@H](C(C)C)C(=O)N2)OC(=O)CNC1=O (stereo partly shown) [FK-A1]
	higher inhibition rate than FK228	CC(C)C1NC(=O)CC2/C=C/CCSSCC(NC1=O)C(=O)NCC(=O)NCC(=O)O2 (stereo not shown) [FK-A2]
